Reference: PubChem BioAssay AID624297 (National Center for Advancing Translational Sciences (NCATS), 2012)
In all, about 340,000 compounds went through this assay and about 6,200 (1.8%) were called active. This list was built around the results that the source calls inconclusive (neither active nor inactive); the mix of calls is not that of the screen. Calls come from the whole dose curve; as a rule, active = well fitted activation curve with a large enough effect; inconclusive = small, poorly fitted or top-dose-only effect; inactive = no such curve, though single readings can be large or run the other way. Where the call is inconclusive, the potency comes from a doubtful curve fit.
Potency is the fitted concentration of half-maximal effect.

Experiment: A quantitative high throughput screen for small molecules that induce DNA re-replication in SW480 colon adenocarcinoma cells. For re-replication activation: % of control where 0% means no effect. Note: nearly all actives have a fitted effect of over 55% in size.
Conditions: Hoechst DNA content imaging, 48 h; re-replication activation: at 46.1 µM (top of the series) unless noted
Summary of the method: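 Per well, 250 cells were exposed to pinned compound for 48 hr. Nuclear DNA was visualised with Hoechst (40 min, 37 C) and total object intensity recorded by fluorescence scanning.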
In the case of `CCOc1cccc(CNCCO)c1OCc1ccc(Cl)cc1Cl`, the Potency was inconclusive: 29.1 µM [activator, single point]. In the case of `CCCN1C(=O)/C(=C/c2ccc(OCc3ccc(C(=O)O)cc3)c(OC)c2)NC1=S`, the Potency was inconclusive: 29.1 µM [activator, single point]. In the case of `COCCNC(=O)c1sc2ncn(CC(=O)N3CCCCC3)c(=O)c2c1C`, the Potency was inconclusive: 29.1 µM [activator, single point]. For `CC1(C)CC(=O)C(C=NCCN2CCOCC2)=C(O)C1`, the Potency was active: 6.51 µM. In the case of `CCCCC(=O)OCc1nc2ccccc2s1`, the Potency was “inactive”. In the case of `CCC1C(=O)NCCN1C(=O)c1ccc2nc(Cc3ccc(OC)cc3)oc2c1` (stereo not given), the Potency was inconclusive: 20.6 µM [activator, single point]. With `Cc1cccc(-n2ncc3c(N4CCCc5ccccc54)ncnc32)c1` the Potency was active: 20.6 µM. For `CC(C)(C)c1ccc(C(=O)Oc2ccc3c(c2)OCC3=O)cc1`, the Potency was inconclusive: 29.1 µM [activator, single point]. For `COc1cc(-c2nnc3sc(-c4cccs4)nn23)cc(OC)c1OC`, the Potency was inconclusive: 4.11 µM [activator, full curve, poor fit]. In the case of `COc1ccc(O)c(-c2nc(N)nc(N)n2)c1`, the Potency was inconclusive: 29.1 µM [activator, single point]. In the case of `Clc1ccc2c(c1)C(C1=NCCN1)c1ccccc1CS2` (stereo not given), the Potency was active: 1.3 µM. For `COc1ccc(NS(=O)(=O)c2ccc3ccccc3c2)c2ncccc12`, the Potency was active: 14.6 µM. In the case of `O=Cc1[nH]c2ccccc2c1N(C(=O)CCl)c1ccc([N+](=O)[O-])cc1`, the Potency was inconclusive: 16.4 µM [activator, partial curve, poor fit]. With `COc1ccc(C2N(C(=O)c3ccccc3)CCN2C(=O)c2ccccc2)cc1` the Potency was “inactive”. In the case of `C=C[C@@H]1c2ccccc2N(S(=O)(=O)c2ccc(C)cc2)[C@H](c2ccccc2)C1(C#N)C#N`, the Potency was inconclusive: 3.26 µM [activator, single point]. With `CCc1nc(Nc2cccc(O)c2)c2oc3ccccc3c2n1` the Potency was inconclusive: 2.06 µM [activator, partial curve, poor fit]. With `COc1ccc(-c2cc(C(=O)N3CCN(c4ccccc4)CC3)c3ccccc3n2)cc1` the Potency was active: 1.84 µM. For `Cc1cc(SCC(=O)OCC(=O)NCc2ccc3c(c2)OCO3)c(C)cc1Br`, the Potency was inconclusive: 18.4 µM [activator, partial curve, poor fit]. For `C=CCn1c(SCC(=O)N2CCN(c3ccccc3)CC2)nc2c([nH]c3ccccc32)c1=O`, the Potency was inconclusive: 3.66 µM [activator, partial curve, poor fit]. With `COc1ccc2c(=O)c3c(=O)n(Cc4ccco4)c(C(C)C)nc3oc2c1` the Potency was “inactive”. With `CCOC(=O)C1(Cc2ccccc2C(F)(F)F)CCN(Cc2ccc(COC)o2)CC1` the Potency was “inactive”. In the case of `O=C(Nc1cccc(C(F)(F)F)c1)c1ccc(N2CCNCC2)c([N+](=O)[O-])c1`, the Potency was inconclusive: 29.1 µM [activator, single point]. For `COc1ccccc1C(=O)c1nc2ccccc2n1C`, the Potency was inconclusive: 5.8 µM [activator, single point]. In the case of `COCCNC(=O)CSc1nc2scc(-c3ccccc3)c2c(=O)[nH]1`, the Potency was inconclusive: 29.1 µM [activator, single point]. With `Nc1c(Cl)ncnc1NCc1ccccc1` the Potency was inconclusive: 2.59 µM [activator, full curve, poor fit]. With `O=C(O)c1cnc(-c2ccccc2)nc1-c1ccccc1` the Potency was “inactive”. For `CC(C)c1ccc(NC(=S)NCc2cccs2)cc1`, the Potency was inconclusive: 29.1 µM [activator, single point]. For `CCCc1cc(=O)n2nc(N3CCC(C(=O)N4CCN(c5cccc(OC)c5)CC4)CC3)sc2n1`, the Potency was “inactive”. For `O=S(=O)(NCc1ccccc1Cl)c1cccs1`, the Potency was “inactive”. For `Cc1c(CCC(=O)N[C@@H](CC(C)C)C(=O)O)c(=O)oc2cc3oc4c(c3cc12)CCCC4`, the Potency was inconclusive: 4.11 µM [activator, single point]. In the case of `CCC[C@@H]1C[C@@H](C(=O)N[C@H]([C@@H](C)O)[C@H]2O[C@H](SC)[C@H](O)[C@@H](O)C2O)N(C)C1` (stereo not given in full), the Potency was inconclusive: 22.4 µM [activator, single point]. With `COC(=O)[C@H](CC(C)C)NC(=O)N1CCN(c2cccc(C(F)(F)F)c2)CC1` the Potency was inconclusive: 32.6 µM [activator, partial curve, poor fit]. For `Cc1ccc(S(=O)(=O)N2C=CC(C(F)(F)F)=NCC2)cc1`, the re-replication activation was inactive: 3.57% [at 9.22 µM]. In the case of `Cn1c(=O)c(-c2ccccc2N)nc2ccccc21`, the Potency was inconclusive: 0.206 µM [activator, full curve, poor fit]. In the case of `Cc1ccc(C)c(OCC(=O)Nc2ccc(S(=O)(=O)Nc3ncccn3)cc2)c1`, the Potency was “inactive”. For `CCCNC(=O)c1c(N)n(-c2cccc(OC)c2)c2nc3ccccc3nc12`, the Potency was inconclusive: 2.06 µM [activator, full curve]. In the case of `O=[N+]([O-])c1ccccc1N/N=C\c1ccccc1F`, the Potency was active: 20.6 µM. With `CCCOc1ccccc1C1CC(=O)Nc2cc3c(cc21)OCCO3` (stereo not given) the Potency was inconclusive: 2.59 µM [activator, full curve, poor fit]. In the case of `COC(=O)CNC(c1ccccc1)c1cc(C)ccc1NC(=O)c1cccc(Cl)c1` (stereo not given), the Potency was inconclusive: 29.1 µM [activator, single point]. In the case of `CCC(=O)Nc1cccc(-n2nnnc2SCC(=O)c2ccc(C)c(C)c2)c1`, the Potency was “inactive”. For `CC(=O)Nc1nonc1-c1nc2ccccc2n1Cc1ccccc1`, the Potency was inconclusive: 29.1 µM [activator, single point]. With `Cn1ccnc1Sc1nc2ccccc2nc1NS(=O)(=O)c1ccccc1` the Potency was “inactive”. For `Cc1ccccc1C(=O)NNC(=S)NC(=O)c1ccc(Cl)cc1Cl`, the Potency was inconclusive: 29.1 µM [activator, single point]. With `CC(=O)c1cccc(OCC(O)CN2CCN(C(=O)c3ccco3)CC2)c1` (stereo not given) the Potency was inconclusive: 1.3 µM [activator, full curve, poor fit]. With `CCOC(=O)C1CCN(C(=O)c2ccc(Cl)c(S(=O)(=O)N3CCOCC3)c2)CC1` the Potency was inconclusive: 25.9 µM [activator, single point]. In the case of `O=S(=O)(c1ccc(Cl)c(Cl)c1)c1snnc1-c1ccccc1`, the Potency was active: 1.3 µM. With `Cc1nnc(NC(=O)CSc2nnc(CC(=O)Nc3ccccc3Cl)n2C)s1` the Potency was “inactive”. For `C=CCOc1c(Br)cc(CNc2ccc(NC(=O)C(C)C)cc2)cc1OCC`, the Potency was inconclusive: 29.1 µM [activator, single point]. For `CC[C@H](NC(C)C)[C@H](O)c1ccc(O)c(O)c1`, the Potency was inconclusive: 33.5 µM [activator, single point]. For `Cc1ccc(C(=O)Nc2ccc3c(c2)OCO3)cc1S(=O)(=O)N1CCCCC1`, the Potency was inconclusive: 29.1 µM [activator, partial curve, poor fit]. With `Cc1cc(N(C)C)ccc1N=Nc1ccc2ncccc2c1` the Potency was “inactive”. In the case of `CCC(Oc1cc(Cl)ccc1Cl)C(=O)NNC(=O)CCC(=O)O` (stereo not given), the Potency was inconclusive: 3.26 µM [activator, partial curve, poor fit]. In the case of `CCCCNC(=S)NNC(=O)c1cc(C2CC2)nc2ccccc12`, the Potency was “inactive”. In the case of `COc1ccc2cc(CN(C(=O)Nc3ccccc3)C3CCCC3)c(=O)[nH]c2c1`, the Potency was “inactive”. With `CCOc1ccc(CN2CCN(CC(O)Cn3c4ccccc4c4ccccc43)CC2)cc1` (stereo not given) the Potency was inconclusive: 29.1 µM [activator, single point]. For `COc1ccc(OC)c(-c2csc(NC(=O)Cc3ccccc3F)n2)c1`, the Potency was inconclusive: 18.4 µM [activator, single point]. With `O=C(Nc1ccc(N2CCCC2)cc1)c1cccc(Cl)c1Cl` the Potency was inconclusive: 0.0103 µM [activator, full curve, poor fit]. In the case of `O=C(Cn1cnc2c(cnn2-c2ccc(F)cc2)c1=O)NCc1ccco1`, the Potency was inconclusive: 20.6 µM [activator, single point]. In the case of `COc1cccc(NC(=O)Cn2c(=O)n(-c3ccccc3)c(=O)c3sccc32)c1`, the Potency was inconclusive: 2.91 µM [activator, partial curve, poor fit]. For `COC(=O)CCCCCCCCC(O)CN(C)C` (stereo not given), the Potency was inconclusive: 18.4 µM [activator, single point]. In the case of `CCOc1ccccc1N1CCN(C(=O)c2cc(C)oc2C)CC1`, the Potency was inconclusive: 18.4 µM [activator, single point]. In the case of `COc1cc(C(C)=O)ccc1OC(C)C(=O)Nc1ccc(S(=O)(=O)N2CCCC2)cc1` (stereo not given), the Potency was inconclusive: 20.6 µM [activator, single point]. In the case of `O=C1NN=C(c2ccccc2)C1Cc1ccccc1` (stereo not given), the Potency was “inactive”. With `CCn1c(C(=O)N2CCCC(C(=O)NCCc3ccc(C)cc3)C2)cc2sccc21` (stereo not given) the Potency was inconclusive: 14.6 µM [activator, single point]. With `NC(=S)NNc1ccc(Cl)c(Cl)c1` the Potency was inconclusive: 20.6 µM [activator, single point]. With `O=C(NNC(=S)NC(=O)c1cccc([N+](=O)[O-])c1)c1ccc(O)cc1` the Potency was “inactive”. With `Cc1nn(-c2ccccc2)cc1/C=N/NC(=O)c1cccs1` the Potency was “inactive”. For `CCOC(=O)c1ccc(N2CCCCC2)c(NS(=O)(=O)c2ccc(C)cc2)c1`, the Potency was inconclusive: 18.4 µM [activator, single point]. With `O=C1/C(=C/c2ccncc2)SC(=S)N1Cc1ccccc1` the Potency was inconclusive: 18.4 µM [activator, single point]. For `CCN(CC)CCOc1ccc(C(O)(Cc2ccc(Cl)cc2)c2ccc(C)cc2)cc1` (stereo not given), the Potency was inconclusive: 13.3 µM [activator, single point].
